Measured data: PubChem BioAssay AID1259405 (NCATS, 2018)

- Test: 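Mouse-designed siRNAs used to find CHO productivity engineering targets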 (primary screen)
- Cell system: Chinese hamster CHO-K1 ovary cells with stable secreted eGFP expression
- Knock-down reagent: single siRNA against mouse genes, 0.8 pmol siRNA per well (2 µl of 400 nM stock)
- Duration: 3 days
- Measured: 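Per-well intracellular GFP measured by laser scanning cytometry, plus viability from ATP luminescence, each relative to plate median of non-targeting control wells, in %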
- Direction: GFP, % of control: higher = more GFP per well, higher productivity; viability (ATP), % of control: higher = more viable cells (more ATP)
- Active means: 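a knock-down is called active if GFP reaches 120% or more of non-targeting control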
The deposit covers about 50,000 reagents; shown is an unselected part. Over the whole deposit, about 4,000 (8%) got an active call. 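Mouse siRNA library applied to hamster cells; one well for each siRNA.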 The numbers tell different reagents against one gene apart.

Depletion of Mapk11 gave: GFP, % of control 83.8; viability (ATP), % of control 86.7; inactive.
Knock-down of Smap1 #1 resulted in: GFP, % of control 40.9; viability (ATP), % of control 29.1; inactive.
With knock-down of Smap1 #2, the record shows GFP, % of control 92; viability (ATP), % of control 83; inactive.
Smap1 #3 showed GFP, % of control 52.4; viability (ATP), % of control 51.3; inactive.
Depletion of Bricd5 #1 gave: GFP, % of control 89.6; viability (ATP), % of control 66.5; inactive.
With knock-down of Bricd5 #2, the record shows GFP, % of control 113; viability (ATP), % of control 93.4; inactive.
Against Bricd5 #3, the entry reads GFP, % of control 41.6; viability (ATP), % of control 41.4; inactive.
Itlnb #1 scored GFP, % of control 68.8; viability (ATP), % of control 67.8; inactive.
With knock-down of Itlnb #2 the results were GFP, % of control 72.7; viability (ATP), % of control 53.2; inactive.
With knock-down of Cdon #1, the record shows GFP, % of control 68.3; viability (ATP), % of control 58.4; inactive.
Cdon #2 gave GFP, % of control 82; viability (ATP), % of control 66.8; inactive.
For Ggnbp1 #1, the values are GFP, % of control 74.9; viability (ATP), % of control 116; inactive.
Knock-down of Ggnbp1 #2 resulted in: GFP, % of control 108; viability (ATP), % of control 131; inactive.
Ggnbp1 #3 showed GFP, % of control 29.1; viability (ATP), % of control 17.4; inactive.
With knock-down of Lrp12 #1, the screen gave GFP, % of control 29.5; viability (ATP), % of control 24.9; inactive.
After knock-down of Lrp12 #2, the record shows GFP, % of control 48.3; viability (ATP), % of control 56.4; inactive.
After knock-down of Lrp12 #3, the screen gave GFP, % of control 73.9; viability (ATP), % of control 88.1; inactive.
Silencing of Plekha4 #1 gave: GFP, % of control 203; viability (ATP), % of control 60; active.
Plekha4 #2 showed GFP, % of control 118; viability (ATP), % of control 107; inactive.
After knock-down of Plekha4 #3, the record shows GFP, % of control 127; viability (ATP), % of control 103; active.
With knock-down of Capn15 #1, the record shows GFP, % of control 95.6; viability (ATP), % of control 75; inactive.
With knock-down of Capn15 #2 the results were GFP, % of control 47.1; viability (ATP), % of control 58; inactive.
Against Capn15 #3 the deposit lists GFP, % of control 82.6; viability (ATP), % of control 67.5; inactive.
For Rffl #1, the entry reads GFP, % of control 126; viability (ATP), % of control 80.8; active.
After knock-down of Rffl #2, the screen gave GFP, % of control 77.7; viability (ATP), % of control 102; inactive.
Rffl #3 scored GFP, % of control 34.2; viability (ATP), % of control 51.6; inactive.

A portion of the results above, for reference:
Itlnb #1 | GFP, % of control = 68.8; viability (ATP), % of control = 67.8; Outcome = inactive
Itlnb #2 | GFP, % of control = 72.7; viability (ATP), % of control = 53.2; Outcome = inactive
Cdon #1 | GFP, % of control = 68.3; viability (ATP), % of control = 58.4; Outcome = inactive
Cdon #2 | GFP, % of control = 82; viability (ATP), % of control = 66.8; Outcome = inactive

More entries:
After knock-down of Hsfy2 #1, the record shows GFP, % of control 97; viability (ATP), % of control 52.4; inactive.
With knock-down of Hsfy2 #2, the record shows GFP, % of control 56.8; viability (ATP), % of control 78.5; inactive.
For Hsfy2 #3, the values are GFP, % of control 70; viability (ATP), % of control 65.3; inactive.
Cenpc1 #1 gave GFP, % of control 96.7; viability (ATP), % of control 106; inactive.
Cenpc1 #2 scored GFP, % of control 69; viability (ATP), % of control 69; inactive.
Silencing of Tas2r116 #1 gave: GFP, % of control 54.6; viability (ATP), % of control 59; inactive.
Knock-down of Tas2r116 #2 gave: GFP, % of control 59.1; viability (ATP), % of control 58.2; inactive.
Tas2r116 #3 scored GFP, % of control 61.2; viability (ATP), % of control 97.6; inactive.
For Prr9 #1, the values are GFP, % of control 115; viability (ATP), % of control 68.6; inactive.
Against Prr9 #2, the entry reads GFP, % of control 95.1; viability (ATP), % of control 120; inactive.
Prr9 #3 gave GFP, % of control 69.7; viability (ATP), % of control 84.1; inactive.
With knock-down of Nxpe2 #1, the screen gave GFP, % of control 95.6; viability (ATP), % of control 95.7; inactive.
Nxpe2 #2 showed GFP, % of control 58.8; viability (ATP), % of control 73.1; inactive.
After knock-down of Nxpe2 #3 the results were GFP, % of control 88.4; viability (ATP), % of control 82.7; inactive.
